Results taken from publication PMC3897744.
No constants are given. Whether binding was seen depends on the method and setting. In cells and extracts the contact can be indirect. Some entries that bind do so weakly or less than the wild type. For part of these data: Tags and fused reporters may be left off the sequences shown.

By UniProt entry, the sequences of proteins in these tests, tags left out.
UniProt Q8NEB9: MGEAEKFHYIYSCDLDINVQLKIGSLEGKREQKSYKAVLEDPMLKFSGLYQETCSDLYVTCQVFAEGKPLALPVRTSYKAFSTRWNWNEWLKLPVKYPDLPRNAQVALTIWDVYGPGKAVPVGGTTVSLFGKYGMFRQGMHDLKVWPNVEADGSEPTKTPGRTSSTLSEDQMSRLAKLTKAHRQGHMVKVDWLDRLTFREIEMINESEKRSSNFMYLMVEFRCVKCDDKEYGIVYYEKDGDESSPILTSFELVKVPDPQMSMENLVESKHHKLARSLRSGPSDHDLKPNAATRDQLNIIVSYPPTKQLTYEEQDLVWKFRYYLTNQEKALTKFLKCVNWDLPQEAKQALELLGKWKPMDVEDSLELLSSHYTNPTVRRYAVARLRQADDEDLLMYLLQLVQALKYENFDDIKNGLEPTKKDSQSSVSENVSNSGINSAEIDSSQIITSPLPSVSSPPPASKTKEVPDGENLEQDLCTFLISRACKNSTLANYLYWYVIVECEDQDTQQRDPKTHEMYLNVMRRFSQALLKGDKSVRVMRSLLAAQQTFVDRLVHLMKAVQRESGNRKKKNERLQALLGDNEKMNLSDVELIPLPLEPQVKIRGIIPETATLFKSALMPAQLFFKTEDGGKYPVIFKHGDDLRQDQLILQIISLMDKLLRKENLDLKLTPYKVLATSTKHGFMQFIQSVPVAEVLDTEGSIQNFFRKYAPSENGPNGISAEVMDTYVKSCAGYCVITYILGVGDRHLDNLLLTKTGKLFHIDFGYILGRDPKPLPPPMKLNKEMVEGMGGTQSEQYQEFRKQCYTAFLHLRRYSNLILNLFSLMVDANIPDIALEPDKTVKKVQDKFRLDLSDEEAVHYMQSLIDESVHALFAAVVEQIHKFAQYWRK
UniProt Q99570: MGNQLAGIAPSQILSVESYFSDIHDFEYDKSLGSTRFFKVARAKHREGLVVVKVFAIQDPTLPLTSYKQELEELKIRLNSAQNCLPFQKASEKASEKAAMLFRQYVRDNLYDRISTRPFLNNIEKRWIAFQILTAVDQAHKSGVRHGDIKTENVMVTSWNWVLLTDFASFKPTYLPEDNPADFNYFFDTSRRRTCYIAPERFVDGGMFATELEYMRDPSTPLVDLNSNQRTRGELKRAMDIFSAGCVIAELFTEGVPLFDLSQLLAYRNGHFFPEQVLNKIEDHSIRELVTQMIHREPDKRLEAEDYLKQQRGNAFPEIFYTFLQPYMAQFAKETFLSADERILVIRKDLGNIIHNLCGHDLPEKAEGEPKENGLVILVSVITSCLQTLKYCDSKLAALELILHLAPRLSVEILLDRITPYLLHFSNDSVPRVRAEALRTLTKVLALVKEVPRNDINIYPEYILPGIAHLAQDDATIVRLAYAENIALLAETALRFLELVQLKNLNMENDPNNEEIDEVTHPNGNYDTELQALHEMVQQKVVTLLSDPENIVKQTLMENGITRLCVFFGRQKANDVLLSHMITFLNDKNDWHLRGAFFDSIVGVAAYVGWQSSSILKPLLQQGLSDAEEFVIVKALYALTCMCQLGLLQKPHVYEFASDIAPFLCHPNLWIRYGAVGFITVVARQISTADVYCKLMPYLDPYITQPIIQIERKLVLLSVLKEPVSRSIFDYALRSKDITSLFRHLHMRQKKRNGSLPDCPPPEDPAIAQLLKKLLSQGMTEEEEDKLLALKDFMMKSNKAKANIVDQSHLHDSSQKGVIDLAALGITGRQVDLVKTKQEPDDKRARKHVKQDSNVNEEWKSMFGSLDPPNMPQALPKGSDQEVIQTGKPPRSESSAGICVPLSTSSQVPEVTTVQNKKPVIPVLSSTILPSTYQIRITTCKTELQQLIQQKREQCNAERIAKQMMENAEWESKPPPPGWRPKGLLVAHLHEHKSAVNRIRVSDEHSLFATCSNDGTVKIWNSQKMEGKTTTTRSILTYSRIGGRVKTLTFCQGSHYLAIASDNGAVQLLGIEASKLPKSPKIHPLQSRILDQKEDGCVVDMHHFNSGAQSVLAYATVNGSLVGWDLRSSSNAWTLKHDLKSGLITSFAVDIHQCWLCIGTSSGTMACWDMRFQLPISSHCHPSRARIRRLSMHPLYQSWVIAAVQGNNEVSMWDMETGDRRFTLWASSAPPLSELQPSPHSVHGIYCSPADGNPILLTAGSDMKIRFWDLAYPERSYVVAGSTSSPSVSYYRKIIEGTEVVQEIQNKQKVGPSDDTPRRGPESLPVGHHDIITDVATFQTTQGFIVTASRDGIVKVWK

T1: Ric-8A tagged with GFP or mCherry (separate copies, control for inter-molecular FRET), Q9NPQ8
T1 chain: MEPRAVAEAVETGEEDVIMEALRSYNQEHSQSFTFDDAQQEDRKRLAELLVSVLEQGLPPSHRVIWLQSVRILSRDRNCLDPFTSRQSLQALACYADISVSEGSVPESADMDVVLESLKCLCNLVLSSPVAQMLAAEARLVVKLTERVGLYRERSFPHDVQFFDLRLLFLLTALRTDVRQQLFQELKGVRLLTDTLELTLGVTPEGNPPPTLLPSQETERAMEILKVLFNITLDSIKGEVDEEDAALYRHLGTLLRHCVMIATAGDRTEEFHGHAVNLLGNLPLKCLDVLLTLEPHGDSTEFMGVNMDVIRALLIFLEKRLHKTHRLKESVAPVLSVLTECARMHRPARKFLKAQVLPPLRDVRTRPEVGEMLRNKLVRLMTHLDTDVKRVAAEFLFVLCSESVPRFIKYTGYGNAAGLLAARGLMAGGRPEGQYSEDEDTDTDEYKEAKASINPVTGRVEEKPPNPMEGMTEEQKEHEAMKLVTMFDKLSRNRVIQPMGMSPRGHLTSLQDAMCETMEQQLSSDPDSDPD


Columns and labels:
[1] = biological target: Vps34 (vacuolar protein-sorting 34) (human (endogenous in HeLa)) (UniProt Q8NEB9); experiment: co-IP; endogenous proteins in HeLa lysates; precipitated with anti-Vps34, anti-Vps15 or anti-Ric-8A antibody and protein G-Sepharose, then immunoblotted; cells treated with PTX (200 ng/mL, 3 h) or vehicle in Figure 7E
[2] = biological target: Vps15 (human (endogenous in HeLa)) (UniProt Q99570); experiment: as above
[3] = biological target: T1, Ric-8A tagged with GFP or mCherry …; experiment: FRET or BRET; FRET by FLIM in live HeLa cells; GFP as donor and mCherry as acceptor on separate Ric-8A molecules (Figure S3A-B); details: remark: other sources report otherwise

| binding [3] | Molecule | binding [1] | binding [2] |
| --- | --- | --- | --- |
| – | Resistance to inhibitors of cholinesterase (Ric)-8A (from UniProt Q9NPQ8-3 1-537) | binds | binds |
| no binding | Ric-8A tagged with GFP or mCherry (separate copies, control for inter-molecular FRET), Q9NPQ8 1-531 (protein) MEPRAVAEAVETGEEDVIMEALRSYNQEHSQSFTFDDAQQEDRKRLAELLVSVLEQGLPPSHRVIWLQSVRILSRDRNCLDPFTSRQSLQALACYADISVSEGSVPESADMDVVLESLKCLCNLVLSSPVAQMLAAEARLVVKLTERVGLYRERSFPHDVQFFDLRLLFLLTALRTDVRQQLFQELKGVRLLTDTLELTLGVTPEGNPPPTLLPSQETERAMEILKVLFNITLDSIKGEVDEEDAALYRHLGTLLRHCVMIATAGDRTEEFHGHAVNLLGNLPLKCLDVLLTLEPHGDSTEFMGVNMDVIRALLIFLEKRLHKTHRLKESVAPVLSVLTECARMHRPARKFLKAQVLPPLRDVRTRPEVGEMLRNKLVRLMTHLDTDVKRVAAEFLFVLCSESVPRFIKYTGYGNAAGLLAARGLMAGGRPEGQYSEDEDTDTDEYKEAKASINPVTGRVEEKPPNPMEGMTEEQKEHEAMKLVTMFDKLSRNRVIQPMGMSPRGHLTSLQDAMCETMEQQLSSDPDSDPD | – | – |
